In publication PMC12554172, “Systematic analysis of the RGS2 degron reveals characteristics of substrate recognition by the F-box protein FBXO44” (The Journal of Biological Chemistry, 2025):
These are yes or no findings as the source states them, for the method shown. Some binding calls cover weakened binding; strength is not graded here. Tags and fused reporters may be left off the sequences shown.

The chains behind the UniProt entries cited, without tags or fusion partners. Where a name states a change or a piece, a line headed by the entry shows the natural chain unless it says otherwise.
UniProt P41220: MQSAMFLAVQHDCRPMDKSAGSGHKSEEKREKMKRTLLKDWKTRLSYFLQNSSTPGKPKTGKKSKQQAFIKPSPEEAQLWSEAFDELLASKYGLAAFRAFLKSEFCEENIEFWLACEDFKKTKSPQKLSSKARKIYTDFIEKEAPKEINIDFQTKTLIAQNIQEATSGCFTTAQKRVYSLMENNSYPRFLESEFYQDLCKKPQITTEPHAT

Key:
Assay in all cases: peptide or protein array; custom PEPperPRINT peptide microarray (each position of RGS2^5–16 substituted by every other amino acid; C-terminal truncations); 2 μg/ml purified FLAG-FBXO44^FBA in staining buffer (PBS, 0.005% Tween, pH 7.4, 10% Rockland blocking buffer) overnight at 4 °C; anti-FLAG DyLight800; signal normalised to the original residue; both purified
[1] = biological target: T1, RGS2^5–16 peptide, Cys^13 to Arg (UniProt P41220)
T1 sequence (peptide): MFLAVQHDRRPM

[2] = biological target: T2, RGS2^5–16 peptide, Asp^12 to Pro (UniProt P41220)
T2 sequence (peptide): MFLAVQHPCRPM

[3] = biological target: T3, RGS2^5–16 peptide R14W (UniProt P41220)
T3 sequence (peptide): MFLAVQHDCWPM

[4] = biological target: T4, RGS2^5–16 peptide, Asp^12 to Thr (UniProt P41220)
T4 sequence (peptide): MFLAVQHTCRPM

[5] = biological target: T5, RGS2^5–16 peptide, Cys^13 to Lys (UniProt P41220)
T5 sequence (peptide): MFLAVQHDKRPM

[6] = biological target: T6, RGS2^5–16 peptide, Asp^12 to Ser (UniProt P41220)
T6 sequence (peptide): MFLAVQHSCRPM

[7] = biological target: T7, RGS2^5–16 peptide, Asp^12 to Tyr (UniProt P41220)
T7 sequence (peptide): MFLAVQHYCRPM

[8] = biological target: T8, RGS2^5–16 peptide P15G (UniProt P41220)
T8 sequence (peptide): MFLAVQHDCRGM

[9] = biological target: T9, RGS2^5–16 peptide, Met^16 to Arg (UniProt P41220)
T9 sequence (peptide): MFLAVQHDCRPR

[10] = biological target: T10, RGS2^5–16 peptide, Leu^7 to Asp (UniProt P41220)
T10 sequence (peptide): MFDAVQHDCRPM

[11] = biological target: T11, RGS2^5–16 peptide, Asp^12 to Trp (UniProt P41220)
T11 sequence (peptide): MFLAVQHWCRPM

[12] = biological target: T12, RGS2^5–16 peptide, Asp^12 to Asn (UniProt P41220)
T12 sequence (peptide): MFLAVQHNCRPM

[13] = biological target: T13, RGS2^5–16 peptide, Asp^12 to Met (UniProt P41220)
T13 sequence (peptide): MFLAVQHMCRPM

Measured: binding

B1: FLAG-tagged FBXO44 FBA domain (FBXO44^FBA) (domain or fragment, UniProt Q9H4M3-1 71-252)
chain: FYFLRSLHRNLLHNPCAEEGFEFWSLDVNGGDEWKVEDLSRDQRKEFPNDQVKKYFVTSYYTCLKSQVVDLKAEGYWEELMDTTRPDIEVKDWFAARPDCGSKYQLCVQLLSSAHAPLGTFQPDPATIQQKSDAKWREVSHTFSNYPPGVRYIWFQHGGVDTHYWAGWYGPRVTNSSITIGP
binds: all assays above
